Experimental data from paper PMC4074974.
Results are given in words; binding and its absence hold for the method and conditions named. Binding seen in cells or lysates may run through a third protein. Tags and fused reporters may be left off the sequences shown.

Target: N3-SCML2A WT (FLAG-HA-Twin-Strep-tagged SCML2A) (human), Q9UQR0
Assay: pull-down; pull-down of epitope-tagged SCML2 from induced 293T-REx; input, flow-through and pull-down blotted for untagged SCML2
Conditions: remark: other sources report otherwise

binding: no binding
B1: SCML2 (endogenous, untagged; isoforms not told apart), Q9UQR0 1-700 (protein)
chain: MGQTVNEDSMDVKKENQEKTPQSSTSSVQRDDFHWEEYLKETGSISAPSECFRQSQIPPVNDFKVGMKLEARDPRNATSVCIATVIGITGARLRLRLDGSDNRNDFWRLVDSPDIQPVGTCEKEGDLLQPPLGYQMNTSSWPMFLLKTLNGSEMASATLFKKEPPKPPLNNFKVGMKLEAIDKKNPYLICPATIGDVKGDEVHITFDGWSGAFDYWCKYDSRDIFPAGWCRLTGDVLQPPGTSVPIVKNIAKTESSPSEASQHSMQSPQKTTLILPTQQVRRSSRIKPPGPTAVPKRSSSVKNITPRKKGPNSGKKEKPLPVICSTSAASLKSLTRDRGMLYKDVASGPCKIVMSTVCVYVNKHGNFGPHLDPKRIQQLPDHFGPGPVNVVLRRIVQACVDCALETKTVFGYLKPDNRGGEVITASFDGETHSIQLPPVNSASFALRFLENFCHSLQCDNLLSSQPFSSSRGHTHSSAEHDKNQSAKEDVTERQSTKRSPQQTVPYVVPLSPKLPKTKEYASEGEPLFAGGSAIPKEENLSEDSKSSSLNSGNYLNPACRNPMYIHTSVSQDFSRSVPGTTSSPLVGDISPKSSPHEVKFQMQRKSEAPSYIAVPDPSVLKQGFSKDPSTWSVDEVIQFMKHTDPQISGPLADLFRQHEIDGKALFLLKSDVMMKYMGLKLGPALKLCYYIEKLKEGKYS
